# From patent publication US20200087662
# Sequences of proteins named here, by UniProt entry; tags and fusion partners are left off. Residues count along the entry.
# UniProt P11940, 1-383: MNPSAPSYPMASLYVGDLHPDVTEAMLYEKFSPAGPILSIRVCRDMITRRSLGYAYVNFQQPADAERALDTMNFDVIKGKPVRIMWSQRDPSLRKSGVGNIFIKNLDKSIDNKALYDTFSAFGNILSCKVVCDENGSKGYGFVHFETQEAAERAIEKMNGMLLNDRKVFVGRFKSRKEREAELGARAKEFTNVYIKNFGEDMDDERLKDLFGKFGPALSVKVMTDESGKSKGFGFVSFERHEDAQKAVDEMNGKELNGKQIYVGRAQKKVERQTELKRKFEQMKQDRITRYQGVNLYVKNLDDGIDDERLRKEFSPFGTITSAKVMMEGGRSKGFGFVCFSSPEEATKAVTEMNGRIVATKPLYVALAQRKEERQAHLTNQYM
# UniProt P11940, whole entry: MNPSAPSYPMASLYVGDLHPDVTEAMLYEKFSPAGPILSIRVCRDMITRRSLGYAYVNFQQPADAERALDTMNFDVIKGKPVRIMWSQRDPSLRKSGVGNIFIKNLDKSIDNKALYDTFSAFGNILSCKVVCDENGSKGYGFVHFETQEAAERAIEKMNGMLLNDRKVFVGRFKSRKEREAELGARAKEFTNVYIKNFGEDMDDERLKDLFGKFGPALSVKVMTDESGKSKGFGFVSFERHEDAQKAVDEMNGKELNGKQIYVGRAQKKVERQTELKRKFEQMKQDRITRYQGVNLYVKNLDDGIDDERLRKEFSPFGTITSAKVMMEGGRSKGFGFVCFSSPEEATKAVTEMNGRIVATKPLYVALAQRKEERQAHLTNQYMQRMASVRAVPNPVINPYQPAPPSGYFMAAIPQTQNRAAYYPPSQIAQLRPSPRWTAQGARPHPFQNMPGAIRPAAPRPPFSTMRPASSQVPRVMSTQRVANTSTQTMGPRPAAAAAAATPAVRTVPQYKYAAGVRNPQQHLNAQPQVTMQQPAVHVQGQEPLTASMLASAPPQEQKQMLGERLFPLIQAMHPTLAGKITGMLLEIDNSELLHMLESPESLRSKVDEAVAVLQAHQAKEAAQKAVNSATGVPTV
# Experiments:
# PABPC1 = PABPC1 (UniProt P11940); assay: SELEX; conditions: most enriched 10-mer after five rounds of SEQRS; 50 mM HEPES pH 7.4, 2 mM EDTA, 150 mM NaCl, 22 C; purified recombinant protein; protein details: immobilized on magnetic glutathione (GST) resin
# [1] = molecular target: PABP (PABPC1, endogenous) (Homo sapiens) (UniProt P11940); assay: pull-down; conditions: 2'-OMe at all riboses; PS at the 5'-most and 3'-most linkages; 3' biotin SPOT-ON, streptavidin beads, anti-PABP blot; diminished in PABP-depleted lysate; 2 mM MgCl2, 150 mM NaCl, 4 C; protein in an extract; protein details: U2OS cytoplasmic/whole-cell lysate; label: Cy3 or 3' biotin; variant of Unmodified Poly(A)12 RNA
# [2] = molecular target: PABP (PABPC1, endogenous) (Homo sapiens) (UniProt P11940); assay: EMSA; conditions: 2'-OMe at all riboses, PS at the 5'-most and 3'-most linkages, protein in an extract, protein details: U2OS cytoplasmic/whole-cell lysate, label: Cy3 or 3' biotin
# PABP (PABPC1) = PABP (PABPC1) (UniProt P11940); assay: activity in cells; conditions: 2'-OMe at all riboses; PS at the 5'-most and 3'-most linkages; SUnSET in U2OS, 10 uM, 3 h; no significant effect; protein in cells; variant of Poly(A) SPOT-ON
sequence,measurement,setting,value
AAAAAAAAAA [SEQRS top 10-mer poly(A)],selection result,PABPC1,selected
AAAAAAAAAAAA [Poly(A) SPOT-ON],binding result,[1],binds
same,binding result,"[2]; single shifted band from U2OS lysate, greatly reduced after PAIP depletion of PABP (53%), yeast tRNA, 1 mM EDTA, on ice, variant of Unmodified Poly(A)12 RNA",binds
UAACAAAAUAAU [Scramble SPOT-ON],functional effect,PABP (PABPC1),not active
same,binding result,"[2]; no clear binding to any species in whole-cell extract, variant of Poly(A) SPOT-ON",no binding

# For some assays here: No signal at the amounts used counts as a negative. For some assays here: Results from cells or extracts need not show a direct contact. For some assays here: The exact form of at least one protein or probe is not confirmed.
